In article PMC4449551, “The dominant negative ARM domain uncovers multiple functions of PUB13 in Arabidopsis immunity, flowering, and senescence” (Journal of Experimental Botany, 2015):
Results are given in words; binding and its absence hold for the method and conditions named. For some assays here: In cells and extracts the contact can be indirect. Sequences can lack the tags named with a protein.

Chains of the proteins cited; added tags and fusions are not shown. Residues count along the entry.
UniProt Q9FL28, residues 828-1173: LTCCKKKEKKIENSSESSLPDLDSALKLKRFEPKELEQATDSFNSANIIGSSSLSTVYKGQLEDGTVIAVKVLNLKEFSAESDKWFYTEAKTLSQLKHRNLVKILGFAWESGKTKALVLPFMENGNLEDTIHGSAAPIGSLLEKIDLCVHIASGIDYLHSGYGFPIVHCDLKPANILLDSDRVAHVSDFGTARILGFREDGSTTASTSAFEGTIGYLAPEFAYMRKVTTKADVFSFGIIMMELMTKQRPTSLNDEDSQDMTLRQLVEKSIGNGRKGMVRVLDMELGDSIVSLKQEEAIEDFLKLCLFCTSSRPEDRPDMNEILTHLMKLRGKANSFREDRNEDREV

T1: BAK1–cYFP (Arabidopsis) (UniProt Q94F62)
T1 sequence: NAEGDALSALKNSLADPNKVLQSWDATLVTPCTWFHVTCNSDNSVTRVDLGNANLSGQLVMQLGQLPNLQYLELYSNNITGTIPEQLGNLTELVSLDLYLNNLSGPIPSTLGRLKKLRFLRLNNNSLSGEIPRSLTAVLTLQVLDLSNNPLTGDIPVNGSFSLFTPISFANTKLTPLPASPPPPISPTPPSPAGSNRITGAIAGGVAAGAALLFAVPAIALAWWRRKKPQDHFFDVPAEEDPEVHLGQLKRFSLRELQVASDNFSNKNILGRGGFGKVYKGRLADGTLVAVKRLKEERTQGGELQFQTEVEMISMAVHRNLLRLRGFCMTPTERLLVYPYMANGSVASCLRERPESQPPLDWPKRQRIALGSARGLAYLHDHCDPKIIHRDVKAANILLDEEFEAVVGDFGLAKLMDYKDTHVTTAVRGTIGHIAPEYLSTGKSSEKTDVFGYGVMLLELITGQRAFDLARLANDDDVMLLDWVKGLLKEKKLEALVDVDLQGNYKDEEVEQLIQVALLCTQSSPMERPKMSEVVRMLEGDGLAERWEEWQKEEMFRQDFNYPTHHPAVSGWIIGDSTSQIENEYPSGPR


Legend:
MBP–FLS2CD (Arabidopsis) = MBP–FLS2CD (Arabidopsis) (UniProt Q9FL28); test: pull-down; About 10 μg of MBP or MBP fusion on amylose beads as bait, 10 μg of GST-tagged protein in 1 ml pull-down buffer (20mM TRIS-HCl pH 7.5, 1mM β-mercaptoethanol, 3mM EDTA, 150mM NaCl, 1% NP-40), 1h at 4 °C; western blot with α-GST (Fig. 1B, 1F); both purified
BAK1–cYFP (Arabidopsis) = target: T1, BAK1–cYFP (Arabidopsis); test: split reporter; BiFC in Arabidopsis protoplasts co-transfected with nYFP and cYFP fusions; confocal microscopy 18h after transfection (Fig. 1D)

| binding (BAK1–cYFP (Arabidopsis)) | Binder | binding (MBP–FLS2CD (Arabidopsis)) |
| --- | --- | --- |
|  | GST–PUB13 (enzyme, UniProt Q9SNC6 1-660) MEEEKASAAQSLIDVVNEIAAISDYRITVKKLCYNLARRLKLLVPMFEEIRESNEPISEDTLKTLMNLKEAMCSAKDYLKFCSQGSKIYLVMEREQVTSKLMEVSVKLEQSLSQIPYEELDISDEVREQVELVLSQFRRAKGRVDVSDDELYEDLQSLCNKSSDVDAYQPVLERVAKKLHLMEIPDLAQESVALHEMVASSGGDVGENIEEMAMVLKMIKDFVQTEDDNGEEQKVGVNSRSNGQTSTAASQKIPVIPDDFRCPISLEMMRDPVIVSSGQTYERTCIEKWIEGGHSTCPKTQQALTSTTLTPNYVLRSLIAQWCEANDIEPPKPPSSLRPRKVSSFSSPAEANKIEDLMWRLAYGNPEDQRSAAGEIRLLAKRNADNRVAIAEAGAIPLLVGLLSTPDSRIQEHSVTALLNLSICENNKGAIVSAGAIPGIVQVLKKGSMEARENAAATLFSLSVIDENKVTIGALGAIPPLVVLLNEGTQRGKKDAATALFNLCIYQGNKGKAIRAGVIPTLTRLLTEPGSGMVDEALAILAILSSHPEGKAIIGSSDAVPSLVEFIRTGSPRNRENAAAVLVHLCSGDPQHLVEAQKLGLMGPLIDLAGNGTDRGKRKAAQLLERISRLAEQQKETAVSQPEEEAEPTHPESTTEAADT | no binding (tested: 10 μg of each protein in 1 ml) |
| no binding | U-box–nYFP (domain or fragment, UniProt Q9SNC6 255-329) VIPDDFRCPISLEMMRDPVIVSSGQTYERTCIEKWIEGGHSTCPKTQQALTSTTLTPNYVLRSLIAQWCEANDIE |  |
